Small differences around the control level are noise.
Key:
Test in all cases: normalised response (% of control), CellTox Green; higher = less cell death (100 = DMSO, 0 = benzethonium chloride kill control)
Settings in all cases: incubation time: 72 h
HCC1599 [1] = test system: HCC1599
Method: (§1)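 DSRT, 72 h incubation, CellTox Green / CellTiter-Glo readout. Signal is normalised to DMSO and benzethonium chloride controls. Value is the normalised response at dose 2.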

MCF-10A [2] = test system: MCF-10A
Method: as §1

BT-474 [3] = test system: BT-474
Method: as §1

MDA-MB-436 [4] = test system: MDA-MB-436
Method: as §1

MFM-223 [5] = test system: MFM-223
Method: as §1

CAL-51 [6] = test system: CAL-51
Method: as §1

DU-4475 [7] = test system: DU-4475
Method: as §1

MDA-MB-453 [8] = test system: MDA-MB-453
Method: as §1

CAL-120 [9] = test system: CAL-120
Method: as §1

CAL-85-1 [10] = test system: CAL-85-1
Method: as §1

CAL-148 [11] = test system: CAL-148
Method: as §1

HDQ-P1 [12] = test system: HDQ-P1
Method: as §1

MDA-MB-231 [13] = test system: MDA-MB-231
Method: as §1

HCC1937 = test system: HCC1937
Method: as §1

HCC1599 [14] = test system: HCC1599; remark: listed apart in the source
Method: (§2)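 DSRT, 72 h incubation, CellTox Green / CellTiter-Glo readout. Signal is normalised to DMSO and benzethonium chloride controls. Value is the normalised response at the lowest tested concentration.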

MCF-10A [15] = test system: MCF-10A; remark: listed apart in the source
Method: as §2

BT-474 [16] = test system: BT-474; remark: listed apart in the source
Method: as §2

HCC1143 [17] = test system: HCC1143
Method: as §2

MDA-MB-436 [18] = test system: MDA-MB-436; remark: listed apart in the source
Method: as §2

MFM-223 [19] = test system: MFM-223; remark: listed apart in the source
Method: as §2

CAL-51 [20] = test system: CAL-51; remark: listed apart in the source
Method: as §2

DU-4475 [21] = test system: DU-4475; remark: listed apart in the source
Method: as §2

MDA-MB-453 [22] = test system: MDA-MB-453; remark: listed apart in the source
Method: as §2

BT-549 [23] = test system: BT-549
Method: as §2

CAL-120 [24] = test system: CAL-120; remark: listed apart in the source
Method: as §2

CAL-85-1 [25] = test system: CAL-85-1; remark: listed apart in the source
Method: as §2

CAL-148 [26] = test system: CAL-148; remark: listed apart in the source
Method: as §2

MDA-MB-468 = test system: MDA-MB-468
Method: as §2

HDQ-P1 [27] = test system: HDQ-P1; remark: listed apart in the source
Method: as §2

MDA-MB-231 [28] = test system: MDA-MB-231; remark: listed apart in the source
Method: as §2

Hs578T [29] = test system: Hs578T
Method: as §2

HCC1143 [30] = test system: HCC1143; remark: listed apart in the source
Method: as §1

BT-549 [31] = test system: BT-549; remark: listed apart in the source
Method: as §1

Hs578T [32] = test system: Hs578T; remark: listed apart in the source
Method: as §1

Compound | normalised response (HCC1599 [1]) | normalised response (MCF-10A [2]) | normalised response (BT-474 [3]) | normalised response (MDA-MB-436 [4]) | normalised response (MFM-223 [5]) | normalised response (CAL-51 [6]) | normalised response (DU-4475 [7]) | normalised response (MDA-MB-453 [8]) | normalised response (CAL-120 [9]) | normalised response (CAL-85-1 [10]) | normalised response (CAL-148 [11]) | normalised response (HDQ-P1 [12]) | normalised response (MDA-MB-231 [13]) | normalised response (HCC1937) | normalised response (HCC1599 [14]) | normalised response (MCF-10A [15]) | normalised response (BT-474 [16]) | normalised response (HCC1143 [17]) | normalised response (MDA-MB-436 [18]) | normalised response (MFM-223 [19]) | normalised response (CAL-51 [20]) | normalised response (DU-4475 [21]) | normalised response (MDA-MB-453 [22]) | normalised response (BT-549 [23]) | normalised response (CAL-120 [24]) | normalised response (CAL-85-1 [25]) | normalised response (CAL-148 [26]) | normalised response (MDA-MB-468) | normalised response (HDQ-P1 [27]) | normalised response (MDA-MB-231 [28]) | normalised response (Hs578T [29]) | normalised response (HCC1143 [30]) | normalised response (BT-549 [31]) | normalised response (Hs578T [32])
CC(C)(C)Cn1c(N)nc2ccc(-c3[nH]c(C(C)(C)C)nc3-c3ccc(F)cc3)nc21 (10 nM) | 101% | 82.6% | 103% | 90.8% | 96% | 101% | 100% | 93.1% | 99.8% | 98.3% | 106% | 117% | 111% | 102% |  |  |  |  |  |  |  |  |  |  |  |  |  |  |  |  |  |  |  | 
O=C(/C=C/c1cccnc1)NCCCCC1CCN(C(=O)c2ccccc2)CC1 [Daporinad] (0.1 nM) |  |  |  |  |  |  |  |  |  |  |  |  |  |  | 88.6% | 91% | 100% | 117% | 86.8% | 102% | 116% | 101% | 95% | 91.1% | 100% | 104% | 105% | 121% | 95.5% | 101% |  |  |  | 
Cn1cc(C2=C(c3cn(C4CCN(Cc5ccccn5)CC4)c4ccccc34)C(=O)NC2=O)c2ccccc21 [Enzastaurin] (1 nM) |  |  |  |  |  |  |  |  |  |  |  |  |  |  | 101% | 98.2% | 95.9% | 110% | 88.4% | 97.5% | 92% | 99.9% | 111% | 97.5% | 96.4% | 108% | 104% | 116% | 98.4% | 98.6% | 102% |  |  | 
CN(Cc1cnc2nc(N)nc(N)c2n1)c1ccc(C(=O)N[C@@H](CCC(=O)O)C(=O)O)cc1 [Methotrexate] (5 nM) |  |  |  |  |  |  |  |  |  |  |  |  |  |  | 115% | 67.7% | 102% | 100% | 108% | 103% | 124% | 107% | 101% | 88.5% | 96.1% | 109% | 99.9% | 59.1% | 106% | 95.9% | 112% |  |  | 
O=C(CCBr)N1CCN(C(=O)CCBr)CC1 [Pipobroman] (1 nM) |  |  |  |  |  |  |  |  |  |  |  |  |  |  | 94.4% | 104% | 99.3% | 110% | 79.6% | 99.6% | 105% | 100% | 107% | 92.2% | 103% | 106% | 104% | 92.2% | 93% | 98.3% | 106% |  |  | 
CC(C)N(CCCNC(=O)Nc1ccc(C(C)(C)C)cc1)C[C@H]1O[C@@H](n2cc(Br)c3c(N)ncnc32)[C@H](O)[C@@H]1O [SGC0946] (1 nM) |  |  |  |  |  |  |  |  |  |  |  |  |  |  | 102% | 95.9% | 96.9% | 113% | 80.5% | 105% | 75.2% | 97.3% | 84.3% | 99.3% | 101% | 97.5% | 96.2% | 88.2% | 101% | 98.6% |  |  |  | 
S=P(N1CC1)(N1CC1)N1CC1 [Thio-TEPA] (5 nM) |  |  |  |  |  |  |  |  |  |  |  |  |  |  | 97% | 93.8% | 101% | 108% | 101% | 93.5% | 98.9% | 101% | 103% | 98.7% | 97.4% | 103% | 104% | 75.3% | 96.9% | 81.8% | 100% |  |  | 
CC(=O)Nc1cccc(-n2c(=O)n(C3CC3)c(=O)c3c(Nc4ccc(I)cc4F)n(C)c(=O)c(C)c32)c1 [Trametinib] (0.025 nM) |  |  |  |  |  |  |  |  |  |  |  |  |  |  | 99.1% |  | 103% | 120% | 83.1% | 101% | 126% | 100% | 109% |  | 94.5% | 106% | 108% | 81% |  | 106% | 104% |  |  | 
